In assay [1] the target is T1, Pirh2 (p53-induced RING-H2 protein), endogenous in N2A cells (mouse (endogenous in N2A)) (UniProt Q9CR50).
T1 sequence: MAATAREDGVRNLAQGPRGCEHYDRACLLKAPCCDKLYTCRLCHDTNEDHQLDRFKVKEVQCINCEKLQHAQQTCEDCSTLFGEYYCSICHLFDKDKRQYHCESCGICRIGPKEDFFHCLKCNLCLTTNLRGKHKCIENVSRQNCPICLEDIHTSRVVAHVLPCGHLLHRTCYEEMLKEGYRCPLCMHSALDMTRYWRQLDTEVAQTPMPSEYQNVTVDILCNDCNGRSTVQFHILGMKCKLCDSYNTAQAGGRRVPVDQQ
Briefly: co-IP; anti-Pirh2 antibody on protein G-Sepharose, overnight 4 °C, 2 mg whole lysate of N2A cells (with or without STZ and MG132) or of rat brain cortex and hippocampus (with or without STZ); blotted for cytochrome c and Pirh2; IgG as negative control.

By UniProt entry, the sequences of proteins in these tests, tags left out. Where a name states a change or a piece, a line headed by the entry shows the natural chain unless it says otherwise.
UniProt P62897: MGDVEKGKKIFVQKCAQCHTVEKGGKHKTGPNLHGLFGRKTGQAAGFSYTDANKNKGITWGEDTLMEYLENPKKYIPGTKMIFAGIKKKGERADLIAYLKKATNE

The target in assay [2] is T1, Pirh2 (p53-induced RING-H2 protein), endogenous in N2A cells (mouse (endogenous in N2A)). Briefly: co-IP; anti-Pirh2 antibody, cytosolic fractions of N2A cells (scrambled or siRNA-Pirh2, with or without STZ or Aβ1-42) and of rat brain cortex and hippocampus (with or without Aβ1-42); blotted for cytochrome c and Pirh2; IgG as negative control.
Assay [3] has as its target T2, Myc-DDK-tagged wild-type mouse Pirh2 (mouse) (UniProt Q9CR50).
T2 sequence: T1 sequence
The assay is described as follows: co-IP; anti-Flag antibody on protein G-Sepharose, lysate of N2A cells transiently transfected with Myc-DDK-Pirh2; blotted for cytochrome c and Pirh2; IgG as negative control.

Assay [4] deals with cytochrome c, endogenous in N2A cells (mouse (endogenous in N2A)) (UniProt P62897). Briefly: co-IP; reverse: anti-cytochrome c antibody on protein G-Sepharose, N2A cell lysate and rat brain cortex and hippocampus lysate; blotted for Pirh2 and cytochrome c; IgG as negative control.

The values that follow come from article PMC11091053.

No constants are given. Whether binding was seen depends on the method and setting. In cells and extracts the contact can be indirect. Some results given as binding are weak or reduced against the parent protein; the word gives no strength. For some of these results: Tags and fused reporters may be left off the sequences shown.

In the case of “cytochrome c, endogenous in N2A cells (from UniProt P62897 1-105)”, the binding result in assay [1], in assay [2] and in assay [3] was “binds” each time.

B1: Pirh2 (p53-induced RING-H2 protein), endogenous in N2A cells (protein, UniProt Q9CR50 1-261)
chain: T1 sequence
With B1, the binding entry in assay [4] is on record as “binds”.
